Measured values reported in patent US8999937B2, “Glucocorticoid induced leucine zipper mimetics as therapeutic agents in multiple sclerosis” (Indiana University Research and Technology Corporation, priority 2011, dated 2015).
“Also recorded” adds a separate entry of the source. For at least one compound, name, drawing or mass did not settle the structure.

Experiments:
Assay type in all cases: cell-based, mouse
[1] = test system: CD4+ LNC from PLP primed SJL/J mice; test: In vitro cytokine secretion (ELISA) by PLP139-151 restimulated CD4+ cells from primed SJL/J mice; conditions: 48 h
Method: CD4+ splenocytes isolated 10 days post-immunization from SJL mice induced EAE were co-cultured with irradiated syngenic APC and restimulated with PLP (40 μg/ml) in the presence of complex of chariot peptide with rGILZ protein/dexamethasone/GILZ-P at indicated concentrations. Supernatants collected after 24 hrs were assessed for INF-γ and IL-12p40 by ELISA. *=p<0.05 when compared to cells +PLP.
Supernatants from separate CD4+LNC cultured similarly collected at 24 hrs and 48 hrs were stored at −20° C. The levels of cytokines, IL-10, IL-12, and interferon gamma (IFN-γ) were determined by ELISA, using OptEIA kits, according to the manufacturer's recommendations (BD PharMingen). Group comparisons were made by one way analysis of variance (ANOVA) followed by Tukey's post-hoc.
(§1) Supernatants collected at 24 and 48 h were assessed for specific cytokines using the OptEIA kits (BD Biosciences). Proliferation assays included parallel cultures for 72 h with a final 18-h pulse with [^3H]thymidine measured by liquid scintillation counting (Microbeta, Turku, Finland).

[2] = test system: activated p65 NF-κB subunit; test: NF-κB assay (TransAM): p65 DNA binding in nuclear extracts; conditions: CD4+ LNC restimulated with PLP139-151, 24 h
Method: Nuclear and cytoplasmic protein fractions of CD4+ T cells obtained using a nuclear extraction kit are assessed for NF-κB activation and p65 nuclear translocation using Trans^AM NF-κB kits (Active Motif, Carlsbad, Calif.). The effect of exogenous GILZ and GILZ mimetics on phosphorylation and proteolytic degradation of IκB proteins is determined by Western blot analysis of nuclear and cytoplasmic protein fractions from CD4+ T cells pretreated with GILZ/chariot peptide complex prior to stimulation.
5 μg of nuclear extracts isolated from PLP139-151 restimulated CD4+ cells from R-EAE mice were incubated in a 96-well plate coated with oligonucleotides containing the NF-κB consensus binding site. The activated NF-κB bound to DNA was detected by anti-p65 antibody followed by a peroxidase-coupled secondary antibody and substrate using the TransAM kit protocol (Active Motif).

T-bet and GATA-3 mRNA = test: Real time PCR for T-bet and GATA-3 in CD4+ LNC restimulated in vitro; conditions: CD4+ LNC restimulated in vitro with PLP139-151
Method: Intracellular delivery of r-GILZ was detected using […]-labeled anti-DDK mAb in permeabilized cells and measured by FACS Calibur. […] The delivery efficiency was assessed by mean fluorescence intensity (D). […] (F)-(I) show supernatants collected at 48 h were assessed for IFN-γ (F), IL-12 (G), IL-17 (H), and IL-10 (I) by ELISA. […] Five micrograms of nuclear extracts were tested for binding of the activated p65 NF-κB subunit to an NF-κB consensus sequence using the TransAM NF-κB ELISA kit. The p65 DNA binding activity was calculated as the ratio of absorbance from PLP139-151-stimulated cells to that of unstimulated cells. Values are the average±S.D. performed 3 times in duplicate. […]
Proliferative responses of CD4+ lymph node cells and splenocytes harvested 10 days post-induction upon re-stimulation in vitro with PLP^139-151 in the presence or absence of chariot peptide complexed with purified GILZ protein and/or GILZ mimetics at varying concentrations is determined as described. IL-2, TNF-α, IFN-γ, IL12-p40, IL-17, IL-4, IL-5, IL-10 and TGF-β) of the cells following similar in vitro restimulation is determined by ELISA. Measurement of relative quantities of Th1 and Th2 specific transcription factors is determined by real time PCR using ABI primers.

[3] = test system: CD4+ LNC from PLP primed SJL/J mice; test: In vitro proliferation ([3H]-thymidine) of PLP139-151 restimulated CD4+ LNC from primed SJL/J mice; conditions: vs PLP139-151 alone or vs r-GILZ
Method: CD4+ lymph node cells (LNC) isolated from the draining lymph nodes harvested from SJL/J mice 10 days after immunization with PLP139-151 were cultured in 96-well plates at […] in complete RPMI and restimulated with the PLP peptide (40 μg/ml) for 72 h, including a final 16-h pulse with [^3H]-thymidine. […] Separate cultures stimulated with ova (40 μg/ml) served as control for antigen specificity. Irradiated splenocytes from syngenic mice were used as antigen presenting cells (APC). Cultures were harvested onto glass fiber mats using a Skatron harvester (Skatron, Sterling, Va.), and the levels of [^3H]-thymidine incorporation were determined by liquid scintillation counting (Microbeta; Wallac, Turku, Finland). Results were confirmed by replicate experiments. Data are expressed as Δcpm (counts/min incorporated in antigen-stimulated culture-counts/min incorporated by control unstimulated culture).
as §1

`C[C@@H]1C[C@H]2[C@@H]3CCC4=CC(=O)C=C[C@]4(C)[C@@]3(F)[C@@H](O)C[C@]2(C)[C@@]1(O)C(=O)CO` [dexamethasone, reference compound] was tested, and the IFN-γ secretion ([1]; vs untreated/control peptide) was “significantly decreased; also recorded: significantly lower”, the IL-10 secretion ([1]; vs untreated/control peptide) was “elevated” and the IL-12 secretion ([1]; vs untreated/control peptide) was “significantly decreased; also recorded: significantly lower”. For the same compound, the IL-17 secretion ([1]; vs untreated/control-P) was “significantly lower”, the “p65-specific DNA binding activity in nuclear extracts” value [2] was “significantly decreased” and the “GATA-3 mRNA” value (T-bet and GATA-3 mRNA) was “up-regulated; also recorded: elevated”. The “T-bet mRNA” value (T-bet and GATA-3 mRNA) was “down-regulated; also recorded: significantly decreased” and the “proliferative response, in words” value [3] was “significantly decreased proliferative response”.
